We go through two molecules from article PMC10362694.

The chains behind the UniProt entries cited, without tags or fusion partners.
UniProt P46937: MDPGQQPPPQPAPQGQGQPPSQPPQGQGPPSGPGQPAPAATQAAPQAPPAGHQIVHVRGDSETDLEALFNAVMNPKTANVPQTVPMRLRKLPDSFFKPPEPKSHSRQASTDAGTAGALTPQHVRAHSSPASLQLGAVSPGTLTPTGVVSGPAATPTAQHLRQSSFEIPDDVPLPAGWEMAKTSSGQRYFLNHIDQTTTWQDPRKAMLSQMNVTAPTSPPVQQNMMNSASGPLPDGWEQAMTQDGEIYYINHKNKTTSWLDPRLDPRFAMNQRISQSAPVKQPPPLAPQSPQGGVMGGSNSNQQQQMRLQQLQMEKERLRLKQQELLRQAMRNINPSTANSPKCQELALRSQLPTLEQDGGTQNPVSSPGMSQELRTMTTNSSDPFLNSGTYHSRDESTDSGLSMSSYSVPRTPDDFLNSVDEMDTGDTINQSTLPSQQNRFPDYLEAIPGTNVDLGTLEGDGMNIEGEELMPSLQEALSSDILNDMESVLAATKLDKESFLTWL

These are yes or no findings as the source states them, for the method shown. In cells and extracts the contact can be indirect. Some results given as binding are weak or reduced against the parent protein; the word gives no strength.

The target of experiment [1] is T1, tyrosine 3-monooxygenase/tryptophan 5-monooxygenase activation protein eta (YWHAH) (human (endogenous in OSRC-2 and 786-O)) (UniProt Q04917).
T1 sequence: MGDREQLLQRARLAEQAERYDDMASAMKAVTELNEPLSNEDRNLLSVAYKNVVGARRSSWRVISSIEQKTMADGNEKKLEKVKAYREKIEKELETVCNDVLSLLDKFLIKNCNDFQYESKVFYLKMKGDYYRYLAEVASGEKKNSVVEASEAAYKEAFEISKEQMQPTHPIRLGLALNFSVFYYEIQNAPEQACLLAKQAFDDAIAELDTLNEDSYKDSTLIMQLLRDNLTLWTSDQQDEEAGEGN
Description: co-IP; endogenous proteins in whole-cell RIPA lysates of OSRC-2 and 786-O cells; 5 µg anti-YWHAH, anti-YAP or IgG antibody at 4 °C overnight, protein A/G magnetic beads 2 h at 4 °C, western blot. A general note: In western blotting, separated proteins are transferred to a membrane and probed.

For experiment [2], the target named is T1, tyrosine 3-monooxygenase/tryptophan 5-monooxygenase activation protein eta (YWHAH) (human (endogenous in OSRC-2 and 786-O)). Kind of experiment: co-IP; endogenous proteins in nuclear extracts of OSRC-2 and 786-O cells; anti-YWHAH and anti-YAP antibodies, western blot.
For experiment [3], the target named is Yes1-associated transcriptional regulator (YAP) (human (endogenous in OSRC-2 and 786-O)) (UniProt P46937). Kind of experiment: co-IP; endogenous proteins in whole-cell RIPA lysates of OSRC-2 and 786-O cells; 5 µg anti-YWHAH, anti-YAP or IgG antibody at 4 °C overnight, protein A/G magnetic beads 2 h at 4 °C, western blot.
Experiment [4] has the same target. Kind of experiment: co-IP; endogenous proteins in nuclear extracts of OSRC-2 and 786-O cells; anti-YWHAH and anti-YAP antibodies, western blot.

Regarding “Yes1-associated transcriptional regulator (YAP) (from UniProt P46937 1-504)”, the binding entry in experiment [1] and in experiment [2] was “binds” in each case.

B1: tyrosine 3-monooxygenase/tryptophan 5-monooxygenase activation protein eta (YWHAH) (protein, UniProt Q04917 1-246)
chain: MGDREQLLQRARLAEQAERYDDMASAMKAVTELNEPLSNEDRNLLSVAYKNVVGARRSSWRVISSIEQKTMADGNEKKLEKVKAYREKIEKELETVCNDVLSLLDKFLIKNCNDFQYESKVFYLKMKGDYYRYLAEVASGEKKNSVVEASEAAYKEAFEISKEQMQPTHPIRLGLALNFSVFYYEIQNAPEQACLLAKQAFDDAIAELDTLNEDSYKDSTLIMQLLRDNLTLWTSDQQDEEAGEGN
As to B1, the binding entry in experiment [3] and in experiment [4] was “binds” in each case.
